From PubChem BioAssay AID1508600 (Functional Genomics Laboratory (NCATS/FGL), 2020)
The campaign covered roughly 53,000 sequences. About 3,700 (7%) were called active.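 The calls were made as follows: active = gene knockdowns whose robust z-score for IL-1 alpha signal is at least 2 or at most -2, so actives lie on both sides; inactive = the rest.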 The list shows a part of the results.

Assay: Components of the Cytosolic LPS Sensing Pathway: Gene Identification via Genome-wide siRNA Screen;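 also: robust z of the log signal after scaling to non-targeting control siRNA wells of the plate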
Conditions: RAW264.7 macrophages, IL-1a HTRF, actives lie on both sides, screened at 100 nM (by protocol), cells primed 5 h with Pam3CSK4 first
Outline: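 RAW264.7; siRNA 100 nM final, RNAiMAX, 48h 37 degrees C; Pam3CSK4 5 h; LipidA + TransIT-TKO 24 h; IL-1a HTRF; CellTiter-Glo viability; robust z vs negative-control median.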

z-score, active:
GGGAAUACGGAACCUUCUUTT against Olfr683 2.04, GGACCCAGCUCCUGUACAUTT against Ypel3 2.31, GGAACUCACACAGAACCAATT against Bloc1s6 6.84, GGGCAUGGAACAAGAUGUCTT against Nckipsd -2.43

z-score, inactive:
GGAUUGACAAAUAGCUUGUTT against B430209F14Rik 0.969, GCAAUUAGACAGCAUUCAUTT against Il16 0.491, GGUUCUAAACCUAGCUUUUTT against Fryl 0.539, GGACAAGAAUCCUUGAGUGTT against Nxt1 -0.909, GGAUGAGUUUGAACUAUCCTT against Kcnip2 -1.26, GGCAAAACCCAUUUAUGGUTT against Mprip -0.356, UAUUACAAUGAUCACUGGCTT against Id1 0.435, GGAGCAAUGUCAUCAGCACTT against Adgra2 -0.645, CCUAAAAGCUCAUAGAUUCTT against Cidec -0.376, GGAGCUAACUAACGAGAUGTT against T -0.579, GCUAAACAGACAACUCAACTT against Rufy2 1.04, GGAUUUGUCAUCCACUUCUTT against Sez6 -1.79, GGUACAAACAAGAUGUGGATT against Smc5 0.515, UGGCAAGAUUGAAACCAUATT against Hnrnpa3 -1.61, GGUAUUGUGAAACGUACACTT against Ky 0.914, GGAGUAUCAUUUCAUCUCATT against Mpp1 0.798, CCGUUGUAAUAACAUUGGCTT against Lipg 0.74, GGCCUACCUGGUUGAGAAATT against Spam1 1.44, GGACAUCUAACAAAGCUCUTT against Mdn1 -0.592, GCCAGUAAACGGAGCUACCTT against Nmt1 0.573, GGAGUGUGACUCUCAGAAATT against Adar -0.653, GGAAAUGUGUGUUUCUUGCTT against Slco1a6 0.722, GACUGAACAUAGCCUUCACTT against Olfr677 1, GGUGCUAUGGCUGUGCAUATT against Doxl2 -0.302, GGAGAUCAAAUGGAUCGGCTT against Tfdp1 -0.234, GGUAUUUUGACAGAGUCGATT against Add1 -1.24, GGAGCUGAGGAAUUGAUCCTT against Pudp -1.97, CGAAUCAGUAGAUUUGACATT against Ppp1r9a -1.22, GGCCUGGUCUUAGAAAUAGTT against Dock3 -0.986, GGACAUUUGAUAUUGAAGATT against B3gnt2 -1.88, GGAAAGAACUGAGUUCUCGTT against Ddx19a -0.912, GGCACCAGAUGUUUGUAGCTT against Fam107a -1.11, CGUGUGUCCGAAACAGCUATT against Cog8 0.0633, GGUAUCUAUGGAGGUUAUUTT against Glmp 1.83, GGGACAACGCACUCCAACATT against 1810024B03Rik 0.904, GGUGGACUCCAGAGUUUAUTT against Polr2h -1.2, AGGUUAUUAACAGAUCUCUTT against Olfr1112 -0.401, GGAACAUUGUCUUAAGCAATT against Echdc3 -0.164, GCAGAGAGUUUUUAUCUGCTT against Vmp1 0.0579, GGAAGUUAAUGGGUAAAGUTT against Olfr365 -1.67, GGAUAUGGAGAGUCAUGUGTT against Med15 -1.06, GGCUGACUCUUAGAAAGGGTT against Siah1a -0.0635, GGCAGGUGAACAUCACAGUTT against Hacd3 0.62, GGACAUUGUUUACAAGCUGTT against Pcgf3 1.67, GGUCUCAGACAAAGAUGAATT against Trmt10c -0.239, GGGUUUCCAGUACCUCAAUTT against Serpina6 -1.28, GGUUAUAACAGUCUUAGCATT against Tlcd4 1.13, GGAUGAAGAUGAUGGAUGGTT against Entr1 0.0729, CCACAGUGAUUACGAUUAUTT against Mcpt2 -1.19, GGCUUGGCUUUCAUGUUACTT against Islr2 -0.635, GGAGAGUUUGUCAUUAGUUTT against Herpud2 0.78, GGUGUCAAAUAGCUGAAACTT against Nub1 -1.03, GGCGUGCACACUAAACUGGTT against Nisch 0.877, GGUGAGAAGCAAACUUUCATT against Ggps1 -1.47, UGGUGGAUAUAGGAUUCUUTT against Cd300c -0.814, GCGAUCGCCAAAAUCCGGUTT against Ptpmt1 1.3, GGCUCAAGCACAUAGGAUCTT against Pdlim4 0.143, CCCAACACCCAAUAAAGUUTT against Med25 0.171, GGUACAGCGGAGAUGUACATT against Nqo2 0.54, CCCAAUAAAACUUCCGGGATT against Ttc36 1.14, GGAAAAAUUGCUUCUGACCTT against Rad51b -1.17, GGUCUAUCCAGGAAAAUGGTT against Uxs1 -1.42, GUACCUACUUCACCACCAUTT against Tmem203 -0.517, GGUUAUAAACCAGAAGAGUTT against Mill2 0.807, GGUGAAGAGCCACAAGUUCTT against Prkcg 0.428
